Reference: the supplement of paper PMC10849652
Some of the results follow.

The chains behind the UniProt entries cited, without tags or fusion partners. Where a name states a change or a piece, a line headed by the entry shows the natural chain unless it says otherwise.
UniProt O75448: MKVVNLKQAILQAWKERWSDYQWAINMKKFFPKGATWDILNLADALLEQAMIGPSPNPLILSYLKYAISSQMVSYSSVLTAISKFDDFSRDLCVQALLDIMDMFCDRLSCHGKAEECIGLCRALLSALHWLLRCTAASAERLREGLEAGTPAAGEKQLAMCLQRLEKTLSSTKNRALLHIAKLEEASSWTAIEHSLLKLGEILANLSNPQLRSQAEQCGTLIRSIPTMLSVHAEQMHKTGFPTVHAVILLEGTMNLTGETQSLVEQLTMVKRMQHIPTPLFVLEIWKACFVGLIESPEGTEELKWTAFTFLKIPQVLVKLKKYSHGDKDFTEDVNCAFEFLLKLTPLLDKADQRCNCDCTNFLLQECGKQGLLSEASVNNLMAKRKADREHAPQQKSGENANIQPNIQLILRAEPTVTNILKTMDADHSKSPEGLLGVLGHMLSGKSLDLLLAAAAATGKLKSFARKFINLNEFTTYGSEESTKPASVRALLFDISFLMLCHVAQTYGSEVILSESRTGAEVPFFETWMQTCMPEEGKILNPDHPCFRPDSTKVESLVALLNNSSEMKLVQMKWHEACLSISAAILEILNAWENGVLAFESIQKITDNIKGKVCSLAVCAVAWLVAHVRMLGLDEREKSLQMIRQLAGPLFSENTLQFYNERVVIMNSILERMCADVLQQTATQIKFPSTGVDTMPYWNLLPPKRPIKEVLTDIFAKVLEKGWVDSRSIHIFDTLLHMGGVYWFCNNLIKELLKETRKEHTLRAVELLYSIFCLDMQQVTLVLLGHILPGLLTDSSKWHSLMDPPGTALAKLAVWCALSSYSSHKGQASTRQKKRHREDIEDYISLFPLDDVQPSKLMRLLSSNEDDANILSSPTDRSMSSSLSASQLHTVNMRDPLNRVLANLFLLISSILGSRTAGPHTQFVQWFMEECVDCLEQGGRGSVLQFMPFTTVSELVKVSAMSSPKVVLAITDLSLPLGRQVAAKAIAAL
UniProt Q7L2J0: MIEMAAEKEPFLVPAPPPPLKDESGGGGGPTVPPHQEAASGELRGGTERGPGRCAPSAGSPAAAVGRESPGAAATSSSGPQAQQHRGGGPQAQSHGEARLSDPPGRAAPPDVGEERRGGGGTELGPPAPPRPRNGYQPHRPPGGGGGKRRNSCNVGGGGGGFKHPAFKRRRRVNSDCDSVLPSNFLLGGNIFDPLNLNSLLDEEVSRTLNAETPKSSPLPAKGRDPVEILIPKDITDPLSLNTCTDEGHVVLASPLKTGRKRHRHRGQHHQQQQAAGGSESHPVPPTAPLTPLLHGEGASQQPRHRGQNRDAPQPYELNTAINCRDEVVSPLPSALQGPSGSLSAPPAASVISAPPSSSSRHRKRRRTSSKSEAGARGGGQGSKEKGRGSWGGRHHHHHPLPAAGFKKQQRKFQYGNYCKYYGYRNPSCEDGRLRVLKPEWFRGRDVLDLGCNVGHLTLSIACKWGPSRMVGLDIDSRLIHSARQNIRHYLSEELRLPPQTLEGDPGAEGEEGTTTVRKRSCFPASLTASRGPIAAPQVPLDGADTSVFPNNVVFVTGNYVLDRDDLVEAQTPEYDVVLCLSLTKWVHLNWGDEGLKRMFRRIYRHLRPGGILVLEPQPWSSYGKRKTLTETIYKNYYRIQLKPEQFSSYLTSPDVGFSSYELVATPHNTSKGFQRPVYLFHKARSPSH
UniProt Q8TCB7: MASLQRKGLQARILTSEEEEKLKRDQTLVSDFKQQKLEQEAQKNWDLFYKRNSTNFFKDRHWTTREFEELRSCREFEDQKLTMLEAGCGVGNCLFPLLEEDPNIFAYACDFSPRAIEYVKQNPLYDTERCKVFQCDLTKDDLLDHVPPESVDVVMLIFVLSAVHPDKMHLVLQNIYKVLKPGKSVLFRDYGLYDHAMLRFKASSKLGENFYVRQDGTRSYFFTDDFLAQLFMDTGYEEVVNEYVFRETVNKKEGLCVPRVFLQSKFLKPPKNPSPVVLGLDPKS
UniProt Q96AQ8: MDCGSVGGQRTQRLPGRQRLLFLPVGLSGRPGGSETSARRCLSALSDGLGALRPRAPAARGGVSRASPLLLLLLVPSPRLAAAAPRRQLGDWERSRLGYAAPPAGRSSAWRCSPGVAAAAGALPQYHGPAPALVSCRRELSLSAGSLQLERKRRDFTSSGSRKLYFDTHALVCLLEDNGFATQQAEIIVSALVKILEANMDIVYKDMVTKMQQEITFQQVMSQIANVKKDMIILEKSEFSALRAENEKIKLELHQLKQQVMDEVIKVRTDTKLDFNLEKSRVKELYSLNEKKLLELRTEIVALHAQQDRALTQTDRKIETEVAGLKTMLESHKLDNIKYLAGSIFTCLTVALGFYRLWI
UniProt P33992: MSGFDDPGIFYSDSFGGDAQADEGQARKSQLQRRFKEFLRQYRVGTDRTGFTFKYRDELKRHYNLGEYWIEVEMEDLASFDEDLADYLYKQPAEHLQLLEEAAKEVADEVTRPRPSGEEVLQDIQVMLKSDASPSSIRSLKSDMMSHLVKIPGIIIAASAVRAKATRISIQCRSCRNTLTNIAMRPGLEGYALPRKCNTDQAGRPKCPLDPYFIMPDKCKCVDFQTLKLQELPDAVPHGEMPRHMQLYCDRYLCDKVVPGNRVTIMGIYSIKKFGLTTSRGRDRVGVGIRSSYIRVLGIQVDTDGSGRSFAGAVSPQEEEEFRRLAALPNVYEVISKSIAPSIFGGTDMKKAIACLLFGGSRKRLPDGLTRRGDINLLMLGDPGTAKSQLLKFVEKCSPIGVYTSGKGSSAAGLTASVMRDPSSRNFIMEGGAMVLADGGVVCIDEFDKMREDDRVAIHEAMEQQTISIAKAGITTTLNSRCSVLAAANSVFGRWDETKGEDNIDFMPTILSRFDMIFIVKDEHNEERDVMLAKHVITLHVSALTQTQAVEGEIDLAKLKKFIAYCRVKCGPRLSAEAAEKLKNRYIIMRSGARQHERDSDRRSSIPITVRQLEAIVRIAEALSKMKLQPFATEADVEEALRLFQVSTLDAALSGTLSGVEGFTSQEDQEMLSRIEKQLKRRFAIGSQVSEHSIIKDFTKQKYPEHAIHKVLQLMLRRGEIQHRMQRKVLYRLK
UniProt Q13503: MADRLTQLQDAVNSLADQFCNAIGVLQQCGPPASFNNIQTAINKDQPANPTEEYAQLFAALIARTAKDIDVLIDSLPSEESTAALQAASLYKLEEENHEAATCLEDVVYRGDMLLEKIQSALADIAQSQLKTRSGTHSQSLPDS
UniProt P23368: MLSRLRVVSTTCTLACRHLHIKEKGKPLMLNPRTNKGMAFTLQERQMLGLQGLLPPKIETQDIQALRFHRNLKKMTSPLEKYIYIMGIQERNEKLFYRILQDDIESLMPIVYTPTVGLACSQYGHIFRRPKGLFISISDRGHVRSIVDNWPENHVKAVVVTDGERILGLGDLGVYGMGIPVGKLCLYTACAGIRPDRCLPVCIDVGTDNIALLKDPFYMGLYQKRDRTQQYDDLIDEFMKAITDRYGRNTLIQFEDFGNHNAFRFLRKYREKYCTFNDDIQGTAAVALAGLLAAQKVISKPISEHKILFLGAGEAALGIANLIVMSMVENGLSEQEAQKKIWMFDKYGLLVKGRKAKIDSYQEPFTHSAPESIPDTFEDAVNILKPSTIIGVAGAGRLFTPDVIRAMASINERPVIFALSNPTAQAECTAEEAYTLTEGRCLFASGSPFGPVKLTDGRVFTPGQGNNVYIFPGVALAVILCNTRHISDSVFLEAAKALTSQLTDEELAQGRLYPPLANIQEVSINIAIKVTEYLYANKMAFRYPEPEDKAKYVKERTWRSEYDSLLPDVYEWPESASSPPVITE
UniProt Q07820, whole entry, looked up: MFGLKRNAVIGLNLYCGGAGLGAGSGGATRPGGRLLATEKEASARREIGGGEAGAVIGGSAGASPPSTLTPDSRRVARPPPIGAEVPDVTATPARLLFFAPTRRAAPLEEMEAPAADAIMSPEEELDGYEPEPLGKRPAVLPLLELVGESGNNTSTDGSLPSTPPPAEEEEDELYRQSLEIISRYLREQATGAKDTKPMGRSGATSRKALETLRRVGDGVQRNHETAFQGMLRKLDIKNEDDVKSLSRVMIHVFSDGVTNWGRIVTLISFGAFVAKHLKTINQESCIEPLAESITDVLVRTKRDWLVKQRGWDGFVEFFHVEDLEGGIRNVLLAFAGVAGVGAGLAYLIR
UniProt Q9NVC6: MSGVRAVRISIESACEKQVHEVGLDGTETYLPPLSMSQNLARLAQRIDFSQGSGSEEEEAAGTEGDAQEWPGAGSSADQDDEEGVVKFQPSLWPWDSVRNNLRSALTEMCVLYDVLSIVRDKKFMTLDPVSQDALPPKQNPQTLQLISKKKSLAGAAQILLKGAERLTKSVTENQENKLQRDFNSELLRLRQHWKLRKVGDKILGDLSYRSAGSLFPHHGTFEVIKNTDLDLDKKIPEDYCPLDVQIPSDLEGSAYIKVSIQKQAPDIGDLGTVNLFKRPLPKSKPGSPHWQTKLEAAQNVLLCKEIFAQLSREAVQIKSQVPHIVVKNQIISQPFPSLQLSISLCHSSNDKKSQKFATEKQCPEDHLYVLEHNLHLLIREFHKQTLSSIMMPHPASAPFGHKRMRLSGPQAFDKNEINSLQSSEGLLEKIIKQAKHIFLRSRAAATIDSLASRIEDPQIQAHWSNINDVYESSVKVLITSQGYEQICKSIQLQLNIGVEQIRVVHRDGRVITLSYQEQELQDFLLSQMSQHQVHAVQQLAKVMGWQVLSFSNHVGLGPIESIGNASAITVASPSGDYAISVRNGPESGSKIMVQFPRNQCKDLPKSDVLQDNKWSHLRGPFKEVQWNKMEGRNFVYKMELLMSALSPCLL
UniProt Q96G25: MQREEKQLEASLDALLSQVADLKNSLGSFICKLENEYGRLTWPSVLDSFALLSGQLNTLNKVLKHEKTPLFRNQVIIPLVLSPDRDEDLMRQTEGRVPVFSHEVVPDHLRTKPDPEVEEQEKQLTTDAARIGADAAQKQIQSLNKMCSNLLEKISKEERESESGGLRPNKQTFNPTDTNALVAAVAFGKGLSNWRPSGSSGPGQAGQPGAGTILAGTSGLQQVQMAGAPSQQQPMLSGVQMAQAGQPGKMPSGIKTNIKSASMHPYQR
UniProt Q9HCE5: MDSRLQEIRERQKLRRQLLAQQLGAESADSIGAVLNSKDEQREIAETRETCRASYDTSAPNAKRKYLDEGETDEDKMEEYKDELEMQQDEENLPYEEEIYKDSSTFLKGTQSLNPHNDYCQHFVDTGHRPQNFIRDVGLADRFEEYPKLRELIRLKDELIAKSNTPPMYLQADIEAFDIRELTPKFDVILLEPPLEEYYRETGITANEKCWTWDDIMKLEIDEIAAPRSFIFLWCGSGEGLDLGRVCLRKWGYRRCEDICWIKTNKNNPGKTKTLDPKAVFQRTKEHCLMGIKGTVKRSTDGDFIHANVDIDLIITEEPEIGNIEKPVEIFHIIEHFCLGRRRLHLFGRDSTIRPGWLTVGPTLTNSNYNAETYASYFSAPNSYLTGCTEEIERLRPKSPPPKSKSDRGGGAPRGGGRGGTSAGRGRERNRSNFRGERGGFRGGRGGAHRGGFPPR
UniProt Q9NR56: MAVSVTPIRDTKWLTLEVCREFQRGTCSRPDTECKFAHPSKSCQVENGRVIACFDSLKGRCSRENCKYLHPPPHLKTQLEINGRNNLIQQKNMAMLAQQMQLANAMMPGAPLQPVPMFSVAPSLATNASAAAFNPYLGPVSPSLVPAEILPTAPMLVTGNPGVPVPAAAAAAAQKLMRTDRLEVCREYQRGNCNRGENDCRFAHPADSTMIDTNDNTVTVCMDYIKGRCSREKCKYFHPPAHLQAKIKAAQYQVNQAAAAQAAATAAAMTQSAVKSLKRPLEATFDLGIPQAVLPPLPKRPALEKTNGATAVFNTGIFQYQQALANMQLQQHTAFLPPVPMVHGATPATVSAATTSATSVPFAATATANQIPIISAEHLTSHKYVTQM
UniProt Q6P9B6: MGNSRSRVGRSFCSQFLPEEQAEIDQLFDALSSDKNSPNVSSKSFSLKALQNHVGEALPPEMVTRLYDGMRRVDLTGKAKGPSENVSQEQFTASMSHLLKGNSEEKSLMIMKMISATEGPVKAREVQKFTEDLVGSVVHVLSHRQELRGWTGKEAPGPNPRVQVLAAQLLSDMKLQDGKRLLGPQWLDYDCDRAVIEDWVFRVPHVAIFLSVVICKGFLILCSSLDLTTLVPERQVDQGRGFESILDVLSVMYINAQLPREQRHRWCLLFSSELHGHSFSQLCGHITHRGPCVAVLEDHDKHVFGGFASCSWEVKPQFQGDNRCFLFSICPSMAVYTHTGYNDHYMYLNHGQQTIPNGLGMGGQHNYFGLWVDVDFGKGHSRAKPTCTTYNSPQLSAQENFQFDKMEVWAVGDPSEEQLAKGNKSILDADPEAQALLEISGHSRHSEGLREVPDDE

What was measured:
Experiment in all cases: log2 fold change, soluble protein after heating vs DMSO (PISA); higher = thermal stabilisation; K562 lysate, 10 uM; active = over 0.2 and 3.5 SD of the protein, either way, in both replicates (recomputed)
lapatinib = compound: CS(=O)(=O)CCNCc1ccc(-c2ccc3ncnc(Nc4ccc(OCc5cccc(F)c5)c(Cl)c4)c3c2)o1 [lapatinib]
Summary of the method: (§1)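 To prepare the extract, K562 pellets were dounce-homogenised in PBS pH 7.4 with 1 mM MgCl2, giving crude material at 1 mg/mL protein. This was treated with 10 μM compound for 30 min, then heated in aliquots for 3 min over 48°C-58°C before pooling and addition of NP-40 to 0.5% at 4°C. Centrifugation at 21,000xg for 90 min left soluble protein in the supernatant, which TMTpro 16plex LC-MS/MS quantified with equalised channel sums. Results are log-two fold changes in thermal stability compared with solvent controls, from duplicates.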

pictilisib = compound: CS(=O)(=O)N1CCN(Cc2cc3nc(-c4cccc5[nH]ncc45)nc(N4CCOCC4)c3s2)CC1 [pictilisib]
Summary of the method: as §1

crizotinib = compound: C[C@@H](Oc1cc(-c2cnn(C3CCNCC3)c2)cnc1N)c1c(Cl)ccc(F)c1Cl [crizotinib]
Summary of the method: as §1

[1] = compound: C[C@H](C1=CC=C(C=C1)C(=O)NC2=C3C=CNC3=NC=C2)N
Summary of the method: as §1

duvelisib = compound: C[C@H](Nc1ncnc2nc[nH]c12)c1cc2cccc(Cl)c2c(=O)n1-c1ccccc1 [duvelisib]
Summary of the method: as §1

gandotinib = compound: Cc1cc(Nc2cc(CN3CCOCC3)c3nc(C)c(Cc4ccc(Cl)cc4F)n3n2)n[nH]1 [gandotinib]
Summary of the method: as §1

tozasertib = compound: Cc1cc(Nc2cc(N3CCN(C)CC3)nc(Sc3ccc(NC(=O)C4CC4)cc3)n2)n[nH]1 [tozasertib]
Summary of the method: as §1

doramapimod = compound: Cc1ccc(-n2nc(C(C)(C)C)cc2NC(=O)Nc2ccc(OCCN3CCOCC3)c3ccccc23)cc1 [doramapimod]
Summary of the method: as §1

bafetinib = compound: Cc1ccc(NC(=O)c2ccc(CN3CC[C@H](N(C)C)C3)c(C(F)(F)F)c2)cc1Nc1nccc(-c2cncnc2)n1 [bafetinib]
Summary of the method: as §1

[2] = compound: Cc1cccc(CC(=O)N2CCc3c2ccc(-c2cn(C)c4ncnc(N)c24)c3F)n1
Summary of the method: as §1

Measured: log2 fold change

MED23 (UniProt Q9ULK4)
inactive: lapatinib -0.019 | pictilisib -0.024 | crizotinib 0 | [1] -0.041 | duvelisib 0.023 | gandotinib -0.111 | tozasertib 0.018 | doramapimod -0.005 | bafetinib -0.042 | [2] 0.061

MED24 (UniProt O75448)
inactive: lapatinib 0.002 | pictilisib -0.005 | crizotinib -0.029 | [1] -0.025 | duvelisib 0.026 | gandotinib -0.014 | tozasertib 0.03 | doramapimod 0.034 | bafetinib 0.015 | [2] 0.051

MEPCE (UniProt Q7L2J0)
inactive: lapatinib 0.005 | pictilisib 0.005 | crizotinib -0.007 | [1] 0.031 | duvelisib 0.005 | gandotinib -0.023 | tozasertib 0.008 | doramapimod 0.005 | bafetinib -0.018 | [2] 0

METTL6 (UniProt Q8TCB7)
inactive: lapatinib 0.011 | pictilisib 0.152 | crizotinib -0.082 | [1] 0.015 | duvelisib -0.078 | gandotinib -0.045 | tozasertib 0.075 | doramapimod 0.026 | bafetinib -0.043 | [2] 0.057

MCUR1 (UniProt Q96AQ8)
inactive: lapatinib -0.06 | pictilisib -0.015 | crizotinib 0.011 | [1] -0.042 | duvelisib 0.006 | gandotinib 0.006 | tozasertib 0.045 | doramapimod -0.027 | bafetinib 0.008 | [2] 0.01

MCM5 (UniProt P33992)
inactive: lapatinib -0.011 | pictilisib 0.003 | crizotinib -0.012 | [1] -0.015 | duvelisib 0 | gandotinib -0.018 | tozasertib -0.008 | doramapimod 0.017 | bafetinib -0.007 | [2] 0.016

MED21 (UniProt Q13503)
inactive: lapatinib 0.004 | pictilisib -0.061 | crizotinib -0.072 | [1] 0.259 | duvelisib 0 | gandotinib -0.08 | tozasertib 0.203 | doramapimod -0.11 | bafetinib 0.171 | [2] 0.167

ME2 (UniProt P23368)
inactive: lapatinib -0.003 | pictilisib -0.016 | crizotinib 0.014 | [1] -0.006 | duvelisib -0.039 | gandotinib 0.031 | tozasertib -0.005 | doramapimod 0.015 | bafetinib 0.006 | [2] 0.005

MCL1 (UniProt Q07820)
inactive: lapatinib 0.177 | pictilisib -0.083 | crizotinib -0.112 | [1] -0.26 | duvelisib -0.002 | gandotinib 0.001 | tozasertib 0.024 | doramapimod 0.042 | bafetinib -0.071 | [2] 0.179

MED17 (UniProt Q9NVC6)
inactive: lapatinib 0.003 | pictilisib 0.018 | crizotinib -0.029 | [1] -0.058 | duvelisib -0.005 | gandotinib -0.037 | tozasertib -0.043 | doramapimod 0.008 | bafetinib -0.005 | [2] 0.034

MED8 isoform 2 (UniProt Q96G25)
active: [1] 0.269
inactive: lapatinib 0.005 | pictilisib -0.051 | crizotinib 0.014 | duvelisib 0.023 | gandotinib -0.026 | tozasertib 0.047 | doramapimod 0.069 | bafetinib -0.031 | [2] -0.044

2 records drawn at random from those above, as already listed:
MED8 isoform 2 (UniProt Q96G25)
active: [1] 0.269
inactive: lapatinib 0.005 | pictilisib -0.051 | crizotinib 0.014 | duvelisib 0.023 | gandotinib -0.026 | tozasertib 0.047 | doramapimod 0.069 | bafetinib -0.031 | [2] -0.044

METTL6 (UniProt Q8TCB7)
inactive: lapatinib 0.011 | pictilisib 0.152 | crizotinib -0.082 | [1] 0.015 | duvelisib -0.078 | gandotinib -0.045 | tozasertib 0.075 | doramapimod 0.026 | bafetinib -0.043 | [2] 0.057

Additional records follow:

MECR (UniProt Q9BV79)
inactive: lapatinib -0.028 | pictilisib -0.038 | crizotinib 0.007 | [1] -0.11 | duvelisib 0.007 | gandotinib 0.045 | tozasertib 0.007 | doramapimod 0.02 | bafetinib -0.005 | [2] 0.013

METTL14 (UniProt Q9HCE5)
inactive: lapatinib 0.011 | pictilisib 0.016 | crizotinib 0.03 | [1] 0.171 | duvelisib 0.016 | gandotinib -0.014 | tozasertib 0.023 | doramapimod 0.024 | bafetinib -0.03 | [2] -0.049

MBNL1 isoform 5 (UniProt Q9NR56)
inactive: lapatinib 0.042 | pictilisib -0.046 | crizotinib 0.062 | [1] -0.005 | duvelisib -0.02 | gandotinib -0.02 | tozasertib 0.025 | doramapimod 0.023 | bafetinib -0.015 | [2] -0.02

MEAK7 (UniProt Q6P9B6)
inactive: lapatinib -0.005 | pictilisib -0.005 | crizotinib -0.006 | [1] 0.034 | duvelisib -0.011 | gandotinib 0.007 | tozasertib 0.034 | doramapimod -0.029 | bafetinib 0.002 | [2] 0.008
